These are yes or no findings as the source states them, for the method shown. For some assays here: In cells and extracts the contact can be indirect. Some binding calls cover weakened binding; strength is not graded here.
How the values were obtained:
[1] = target: N-terminally 3 × Flag-tagged LegU1 (expressed in L. pneumophila) (Legionella pneumophila) (UniProt Q5ZZ40); test: pull-down; both purified
[2] = target: 3 × Flag-tagged LegU1 (expressed in HEK293T cells) (Legionella pneumophila) (UniProt Q5ZZ40); test: co-IP

Chains of the proteins cited; added tags and fusions are not shown. Residues count along the entry.
UniProt Q5ZZ40: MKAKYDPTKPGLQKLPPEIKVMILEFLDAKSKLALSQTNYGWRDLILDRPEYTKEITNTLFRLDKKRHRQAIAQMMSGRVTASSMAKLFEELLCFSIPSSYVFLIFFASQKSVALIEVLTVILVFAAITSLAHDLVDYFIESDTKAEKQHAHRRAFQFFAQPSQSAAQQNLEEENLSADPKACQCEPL
UniProt P11021, residues 19-654: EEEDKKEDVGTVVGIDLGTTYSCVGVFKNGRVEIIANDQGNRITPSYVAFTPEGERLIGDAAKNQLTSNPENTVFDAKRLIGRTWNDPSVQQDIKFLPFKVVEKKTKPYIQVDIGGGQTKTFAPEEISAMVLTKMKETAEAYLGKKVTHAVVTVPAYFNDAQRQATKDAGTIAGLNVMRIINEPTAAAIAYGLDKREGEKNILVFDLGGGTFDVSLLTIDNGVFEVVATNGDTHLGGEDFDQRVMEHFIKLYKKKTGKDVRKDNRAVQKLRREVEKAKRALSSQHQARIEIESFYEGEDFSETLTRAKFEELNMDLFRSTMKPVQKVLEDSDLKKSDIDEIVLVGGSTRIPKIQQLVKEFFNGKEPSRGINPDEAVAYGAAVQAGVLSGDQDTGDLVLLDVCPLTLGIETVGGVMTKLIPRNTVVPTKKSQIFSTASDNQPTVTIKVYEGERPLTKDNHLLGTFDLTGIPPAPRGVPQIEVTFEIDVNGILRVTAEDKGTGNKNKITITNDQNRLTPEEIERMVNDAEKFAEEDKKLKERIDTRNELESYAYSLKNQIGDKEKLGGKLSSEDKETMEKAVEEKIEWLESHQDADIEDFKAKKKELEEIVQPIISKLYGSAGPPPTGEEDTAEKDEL

| Substance | binding [1] | binding [2] |
| --- | --- | --- |
| His-tagged BiP (purified from E. coli) (from UniProt P11021 19-654) | binds | – |
| HA-tagged BiP (expressed in HEK293T cells) (from UniProt P11021 19-654) | – | binds |
